Experimental data reported in the supplement of paper PMC12823440, “Inhibitors supercharge kinase turnover through native proteolytic circuits” (Nature, 2025).
Counter-ions that a name gives are not always drawn. This is one part of the list. The calls rarely recur for the same compound in another form.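 In K562 cells expressing nanoluciferase-fused kinases, luminescence was recorded at 4 h intervals between 2 and 18 h, normalized as percent of control with DMSO at 100% and a positive control at 0%. A significant (2 sigma) signal drop marks a time point as decreased. The authors' rule for a hit is not shown and takes in more than the number of time points.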

The chains behind the UniProt entries cited, without tags or fusion partners.
UniProt Q05397, whole entry, looked up: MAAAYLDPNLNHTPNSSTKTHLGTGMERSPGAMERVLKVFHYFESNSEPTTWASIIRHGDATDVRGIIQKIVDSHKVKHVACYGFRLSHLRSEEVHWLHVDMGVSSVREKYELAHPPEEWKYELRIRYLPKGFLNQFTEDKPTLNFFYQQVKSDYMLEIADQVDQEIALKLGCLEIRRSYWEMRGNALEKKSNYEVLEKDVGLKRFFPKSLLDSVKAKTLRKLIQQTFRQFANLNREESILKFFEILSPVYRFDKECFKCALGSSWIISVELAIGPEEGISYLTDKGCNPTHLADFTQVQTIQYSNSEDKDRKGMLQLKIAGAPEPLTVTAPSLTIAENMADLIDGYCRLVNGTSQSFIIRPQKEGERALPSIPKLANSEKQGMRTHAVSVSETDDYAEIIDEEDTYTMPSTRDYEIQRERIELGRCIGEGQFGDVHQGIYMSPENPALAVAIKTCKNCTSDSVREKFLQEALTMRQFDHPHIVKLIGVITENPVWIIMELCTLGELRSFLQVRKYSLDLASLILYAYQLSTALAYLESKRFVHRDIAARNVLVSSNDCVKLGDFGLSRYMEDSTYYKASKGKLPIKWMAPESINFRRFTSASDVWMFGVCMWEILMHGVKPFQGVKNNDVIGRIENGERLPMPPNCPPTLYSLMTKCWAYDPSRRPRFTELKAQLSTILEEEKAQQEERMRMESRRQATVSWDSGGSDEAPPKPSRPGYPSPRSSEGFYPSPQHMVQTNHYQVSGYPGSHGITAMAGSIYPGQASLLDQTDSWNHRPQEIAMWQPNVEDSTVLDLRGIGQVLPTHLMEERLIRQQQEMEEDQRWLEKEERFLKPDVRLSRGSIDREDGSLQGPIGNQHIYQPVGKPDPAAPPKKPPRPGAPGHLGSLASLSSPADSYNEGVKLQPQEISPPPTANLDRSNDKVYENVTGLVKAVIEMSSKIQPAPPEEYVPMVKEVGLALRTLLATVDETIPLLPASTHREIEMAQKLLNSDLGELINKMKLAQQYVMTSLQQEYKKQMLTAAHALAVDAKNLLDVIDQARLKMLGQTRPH

biological target: PRKCA (UniProt P17252); assay: number of time points (of 5) at which kinase-Nluc abundance scored as decreased, DMSO-normalised (count); higher = more persistent destabilization; details: K562; 2-18 h

| SMILES | number of time points |
| --- | --- |
| Cn1cnc(-c2cc3nccc(Oc4ccc(NC(=S)NC(=O)Cc5ccccc5)cc4F)c3s2)c1 [MGCD-265 analog] (10 µM) | 0 |
| Cn1c(=O)c(F)c(Nc2ccc(I)cc2F)c2c(=O)n(C[C@@H](O)CO)cnc21 (10 µM) | 0 |
| Nc1ncnc2c1c(-c1ccc(Oc3ccccc3)cc1)nn2C1CCNCC1 [N-piperidine Ibrutinib (hydrochloride)] (10 µM) | 0 |
| Cc1csc(-c2nnc(Nc3ccc(Oc4ncccc4-c4ccnc(N)n4)cc3)c3ccccc23)c1 (2.5 µM) | 0 |
| O=C(O)CCc1ccc(O)c(O)c1 [Dihydrocaffeic acid] (10 µM) | 0 |
| COCCOc1cnc(Sc2cc(C)c(-c3csc(NC(=O)c4ccncc4)n3)c(C)c2)cn1 [T-1101 (tosylate)] (2.5 µM) | 0 |
| Cc1cc(NC(=O)c2cccc(NC(=O)/C=C/CN(C)C)c2)ccc1Nc1nccc(-c2cccnc2)n1 (10 µM) | 0 |
| Cc1c(NC(=O)OC[C@@H]2COCCN2)cn2ncnc(Nc3ccc4c(cnn4Cc4cccc(F)c4)c3)c12 (10 µM) | 0 |
| Cc1ccc(-c2c(C(=O)CF)n(CCCO)c3ncnc(N)c23)cc1 (10 µM) | 0 |
| Cc1ccc(-c2c(C(=O)CCl)n(CCCO)c3ncnc(N)c23)cc1 (10 µM) | 0 |
| COc1cc(F)c(F)c(Nc2ccc(I)cc2F)c1NS(=O)(=O)C1(C[C@H](O)CO)CC1 [Refametinib] (10 µM) | 0 |
| CCN(CC)c1ccc2cc(C(=O)N3CCN(C(=O)C4=Cc5c(Br)cccc5S4(=O)=O)CC3)c(=O)oc2c1 (2 µM) | 0 |
| COc1ccc(C(=C2C(=O)Nc3ccccc32)c2ccc(OC)cc2)cc1 (10 µM) | 0 |
| N#Cc1ccc2ncnc(NC3CCC(N4CCOCC4)CC3)c2c1 (stereo not given) (10 µM) | 0 |
| NCCN1CCN(C/C=C/C(=O)N2CCC[C@@H](n3nc(-c4ccc(Oc5ccccc5)cc4)c4c(N)ncnc43)C2)CC1 [Ibrutinib-MPEA] (10 µM) | 0 |
| CN(CC(=O)N(Cc1ccc(C2CCCCC2)cc1)c1ccc(C(=O)O)cc1)S(=O)(=O)c1c(F)c(F)c(F)c(F)c1F (2.5 µM) | 0 |
| CCn1c(C(=O)N(C2CC2)C2CC2)cc2c3c(ncn3C)c(Nc3cc(C)n(C)n3)nc21 (10 µM) | 0 |
| CC(C)CN(CC(=O)N1CCN(CC(OCc2ccc3ccccc3c2)c2ccc(Cl)cc2Cl)CC1)CC(C)C (stereo not given) [LYN-1604 (dihydrochloride)] (2.5 µM) | 0 |
| COc1ccc2[nH]cc(/C=C3\C(=O)Nc4ccc(NC(=O)CCN5CCCCC5)cc43)c2c1 (2.5 µM) | 0 |
| CC(C)=CC(=O)CCC(=O)N1CCN(Cc2cc3nc(-c4cccc5[nH]ncc45)nc(N4CCOCC4)c3s2)CC1 (10 µM) | 0 |
| O=C(NCCO)c1ccc2c(c1)nc(Nc1cccc(Cl)c1)c1ccncc12 [CK2 inhibitor 2] (10 µM) | 0 |
| COc1ccc(CC(=O)Nc2nc3c(s2)CCc2ccccc2-3)cc1OC (10 µM) | 0 |
| c1cc2c(cc1O[C@H]1OC[C@H]3[C@@H]1CO[C@@H]3c1ccc3c(c1)OCO3)OCO2 [Sesamolin] (10 µM) | 0 |
| OCCNC1CCCc2c1[nH]c1ccc(-c3ccccc3)cc21 (stereo not given) (2.5 µM) | 0 |
| CNc1nc(Nc2cnn(C3CCN(C4COC4)CC3F)c2Cl)ncc1C(F)(F)F (stereo not given) (10 µM) | 0 |
| Cc1cc2cc(Nc3ccnc(Nc4ccc5[nH]c(C)cc5c4)n3)ccc2[nH]1 (2.5 µM) | 0 |
| CC(C)(C)NC(=O)c1cncn1C1CCN(c2ccc(-c3nnc(C(F)(F)F)o3)cn2)CC1 (10 µM) | 0 |

biological target: PTK2 (UniProt Q05397); assay: as above; details: K562; 2-18 h

| SMILES | number of time points |
| --- | --- |
| C[C@@H](c1ccc2nccn2c1)n1nnc2ncc(-c3cnn(C)c3)nc21 [Savolitinib] (10 µM) | 0 |
| CN1C(=O)C(Cc2c[nH]c3ccccc23)NC1=S (stereo not given) [Necrostatin-1] (10 µM) | 0 |
| C[C@@H]1C(=O)O[C@H](C)[C@H]1C[C@@H](O)[C@](C)(O)[C@H]1CC[C@@]2(O)C3=CC(=O)[C@@H]4C[C@@H](O)[C@@H](O)C[C@]4(C)[C@H]3CC[C@]12C [Cyasterone] (10 µM) | 0 |
| CC(c1ccc(-c2cnc3c(-c4ccc(S(N)(=O)=O)c5ccccc45)cnn3c2)cc1)N1CCCC1 (stereo not given) (2.5 µM) | 0 |
| CCn1c(=O)c(-c2ccc(-c3cncc(C)n3)cc2Cl)cc2cnc(NCCC3CCN(C)CC3)nc21 (10 µM) | 0 |
| O=C(O)c1cc(O)ccc1O [2,5-Dihydroxybenzoic acid] (10 µM) | 0 |
| CC(=NNC(=O)c1ccc(C)c(Br)c1)c1ccc(O)cc1O [mTOR inhibitor-1] (2.5 µM) | 0 |
| Nc1ncnc2c1ncn2[C@@H]1O[C@H](CO)C[C@H]1O [Cordycepin] (10 µM) | 0 |
| C=CC(=O)Nc1cc2c(Nc3ccc(OCc4ccccn4)c(Cl)c3)ncnc2cc1OCCN1CCOCC1 (10 µM) | 3 |
| Cc1ccc(S(=O)(=O)Nc2ccccc2C=Nc2ccccc2NS(=O)(=O)c2ccc(C)cc2)cc1 (10 µM) | 0 |
| CCOc1cc(C(=O)N2CCC(N3CCN(C)CC3)CC2)ccc1Nc1ncc2c(n1)N(C1CCCC1)c1ccccc1C(=O)N2C (10 µM) | 0 |
| Cn1cnc(-c2cc3nccc(Oc4ccc(NC(=S)NC(=O)Cc5ccccc5)cc4F)c3s2)c1 [MGCD-265 analog] (10 µM) | 5 |
| Cn1c(=O)c(F)c(Nc2ccc(I)cc2F)c2c(=O)n(C[C@@H](O)CO)cnc21 (10 µM) | 0 |
| Nc1ncnc2c1c(-c1ccc(Oc3ccccc3)cc1)nn2C1CCNCC1 [N-piperidine Ibrutinib (hydrochloride)] (10 µM) | 0 |
| Cc1csc(-c2nnc(Nc3ccc(Oc4ncccc4-c4ccnc(N)n4)cc3)c3ccccc23)c1 (2.5 µM) | 0 |
| O=C(O)CCc1ccc(O)c(O)c1 [Dihydrocaffeic acid] (10 µM) | 0 |
| COCCOc1cnc(Sc2cc(C)c(-c3csc(NC(=O)c4ccncc4)n3)c(C)c2)cn1 [T-1101 (tosylate)] (2.5 µM) | 0 |
| Cc1cc(NC(=O)c2cccc(NC(=O)/C=C/CN(C)C)c2)ccc1Nc1nccc(-c2cccnc2)n1 (10 µM) | 0 |
| Cc1c(NC(=O)OC[C@@H]2COCCN2)cn2ncnc(Nc3ccc4c(cnn4Cc4cccc(F)c4)c3)c12 (10 µM) | 0 |

| SMILES | number of time points |
| --- | --- |
| Cc1ccc(-c2c(C(=O)CF)n(CCCO)c3ncnc(N)c23)cc1 (10 µM) | 0 |
| Cc1ccc(-c2c(C(=O)CCl)n(CCCO)c3ncnc(N)c23)cc1 (10 µM) | 2 |
| COc1cc(F)c(F)c(Nc2ccc(I)cc2F)c1NS(=O)(=O)C1(C[C@H](O)CO)CC1 [Refametinib] (10 µM) | 0 |
| CCN(CC)c1ccc2cc(C(=O)N3CCN(C(=O)C4=Cc5c(Br)cccc5S4(=O)=O)CC3)c(=O)oc2c1 (2 µM) | 0 |
| COc1ccc(C(=C2C(=O)Nc3ccccc32)c2ccc(OC)cc2)cc1 (10 µM) | 0 |
| N#Cc1ccc2ncnc(NC3CCC(N4CCOCC4)CC3)c2c1 (stereo not given) (10 µM) | 0 |
| NCCN1CCN(C/C=C/C(=O)N2CCC[C@@H](n3nc(-c4ccc(Oc5ccccc5)cc4)c4c(N)ncnc43)C2)CC1 [Ibrutinib-MPEA] (10 µM) | 0 |
| CN(CC(=O)N(Cc1ccc(C2CCCCC2)cc1)c1ccc(C(=O)O)cc1)S(=O)(=O)c1c(F)c(F)c(F)c(F)c1F (2.5 µM) | 0 |
| CCn1c(C(=O)N(C2CC2)C2CC2)cc2c3c(ncn3C)c(Nc3cc(C)n(C)n3)nc21 (10 µM) | 0 |
| CC(C)CN(CC(=O)N1CCN(CC(OCc2ccc3ccccc3c2)c2ccc(Cl)cc2Cl)CC1)CC(C)C (stereo not given) [LYN-1604 (dihydrochloride)] (2.5 µM) | 0 |
| COc1ccc2[nH]cc(/C=C3\C(=O)Nc4ccc(NC(=O)CCN5CCCCC5)cc43)c2c1 (2.5 µM) | 0 |
| CC(C)=CC(=O)CCC(=O)N1CCN(Cc2cc3nc(-c4cccc5[nH]ncc45)nc(N4CCOCC4)c3s2)CC1 (10 µM) | 1 |
| O=C(NCCO)c1ccc2c(c1)nc(Nc1cccc(Cl)c1)c1ccncc12 [CK2 inhibitor 2] (10 µM) | 0 |
| COc1ccc(CC(=O)Nc2nc3c(s2)CCc2ccccc2-3)cc1OC (10 µM) | 0 |
| c1cc2c(cc1O[C@H]1OC[C@H]3[C@@H]1CO[C@@H]3c1ccc3c(c1)OCO3)OCO2 [Sesamolin] (10 µM) | 0 |
| OCCNC1CCCc2c1[nH]c1ccc(-c3ccccc3)cc21 (stereo not given) (2.5 µM) | 0 |
| CNc1nc(Nc2cnn(C3CCN(C4COC4)CC3F)c2Cl)ncc1C(F)(F)F (stereo not given) (10 µM) | 0 |
| Cc1cc2cc(Nc3ccnc(Nc4ccc5[nH]c(C)cc5c4)n3)ccc2[nH]1 (2.5 µM) | 0 |
| CC(C)(C)NC(=O)c1cncn1C1CCN(c2ccc(-c3nnc(C(F)(F)F)o3)cn2)CC1 (10 µM) | 0 |
